According to patent US20030157069A1:
These are yes or no findings as the source states them, for the method shown. Some entries that bind do so weakly or less than the wild type.

The chains behind the UniProt entries cited, without tags or fusion partners. Where a name states a change or a piece, a line headed by the entry shows the natural chain unless it says otherwise.
UniProt Q00342: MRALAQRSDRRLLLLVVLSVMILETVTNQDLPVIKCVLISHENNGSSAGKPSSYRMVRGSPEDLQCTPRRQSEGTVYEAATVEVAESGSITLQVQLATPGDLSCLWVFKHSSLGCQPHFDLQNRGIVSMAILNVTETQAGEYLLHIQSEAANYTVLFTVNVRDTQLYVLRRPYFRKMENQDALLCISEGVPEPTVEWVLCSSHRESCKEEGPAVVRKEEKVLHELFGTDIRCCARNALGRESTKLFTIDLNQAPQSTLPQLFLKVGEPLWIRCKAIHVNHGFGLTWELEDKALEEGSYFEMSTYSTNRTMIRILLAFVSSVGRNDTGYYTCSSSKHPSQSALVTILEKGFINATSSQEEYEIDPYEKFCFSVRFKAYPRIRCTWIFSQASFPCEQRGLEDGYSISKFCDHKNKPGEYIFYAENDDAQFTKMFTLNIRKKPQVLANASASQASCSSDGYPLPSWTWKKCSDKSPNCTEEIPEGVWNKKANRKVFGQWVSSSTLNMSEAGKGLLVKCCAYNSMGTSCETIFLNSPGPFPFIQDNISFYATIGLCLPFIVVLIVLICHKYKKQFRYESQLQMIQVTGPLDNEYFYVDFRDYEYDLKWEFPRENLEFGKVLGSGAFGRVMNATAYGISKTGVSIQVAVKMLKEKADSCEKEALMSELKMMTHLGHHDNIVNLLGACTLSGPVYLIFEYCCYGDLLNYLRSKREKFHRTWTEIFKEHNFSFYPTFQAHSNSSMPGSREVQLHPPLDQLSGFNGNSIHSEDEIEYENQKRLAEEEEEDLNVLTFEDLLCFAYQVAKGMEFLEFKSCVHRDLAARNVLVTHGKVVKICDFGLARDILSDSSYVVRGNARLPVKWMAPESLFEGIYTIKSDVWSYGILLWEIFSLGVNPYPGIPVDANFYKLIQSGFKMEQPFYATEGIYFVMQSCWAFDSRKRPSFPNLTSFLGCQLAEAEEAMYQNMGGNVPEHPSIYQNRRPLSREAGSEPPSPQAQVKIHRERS

Target: T1, murine flt3-ligand of clone #6C (murine) (UniProt P49772)
T1 sequence: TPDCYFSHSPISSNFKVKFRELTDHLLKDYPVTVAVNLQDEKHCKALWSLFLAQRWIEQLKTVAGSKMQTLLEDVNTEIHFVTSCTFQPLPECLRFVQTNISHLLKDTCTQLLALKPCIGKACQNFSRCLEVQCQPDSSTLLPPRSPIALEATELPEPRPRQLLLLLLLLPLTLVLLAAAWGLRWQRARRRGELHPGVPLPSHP
Experiment: slide autoradiography: transfected CV-1/EBNA-1 cells incubated with flt3:Fc (1 ug/ml), detected with 125I-mouse anti-human Fc antibody

binding: binds
Substance: soluble murine flt3-receptor:Fc fusion protein (from UniProt Q00342 28-544; P01857 99-330)
